This experiment addresses Fhit (fragile histidine triad protein), wild type, untagged (human) (UniProt P49789). The experiment in a line: anti-V5 immunoprecipitation from A549 cells co-transfected with FDXR-V5 and FHIT plasmids, immunoblot (FIG. 2E).

By UniProt entry, the sequences of proteins in these tests, tags left out. Where a name states a change or a piece, a line headed by the entry shows the natural chain unless it says otherwise.
UniProt P49789: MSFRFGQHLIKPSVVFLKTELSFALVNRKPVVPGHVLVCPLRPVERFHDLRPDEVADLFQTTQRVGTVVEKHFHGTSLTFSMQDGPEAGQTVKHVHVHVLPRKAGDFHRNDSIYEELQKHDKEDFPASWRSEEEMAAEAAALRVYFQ
UniProt P22570: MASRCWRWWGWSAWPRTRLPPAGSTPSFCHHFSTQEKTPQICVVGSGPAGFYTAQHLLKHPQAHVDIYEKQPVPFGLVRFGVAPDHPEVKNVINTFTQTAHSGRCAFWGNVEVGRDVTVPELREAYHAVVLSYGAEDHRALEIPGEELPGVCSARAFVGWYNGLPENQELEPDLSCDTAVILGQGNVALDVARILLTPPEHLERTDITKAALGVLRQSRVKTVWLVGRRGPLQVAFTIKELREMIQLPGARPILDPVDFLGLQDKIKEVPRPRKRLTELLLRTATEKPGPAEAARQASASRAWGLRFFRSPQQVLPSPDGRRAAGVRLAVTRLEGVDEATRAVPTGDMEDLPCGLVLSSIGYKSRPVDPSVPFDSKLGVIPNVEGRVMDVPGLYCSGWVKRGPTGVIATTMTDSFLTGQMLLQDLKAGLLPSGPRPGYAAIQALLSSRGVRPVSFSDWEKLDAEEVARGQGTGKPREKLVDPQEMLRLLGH

This passage reports binding results from patent US20120010092A1.

No constants are given. Whether binding was seen depends on the method and setting. Binding calls can cover weak binding; strength is not graded here.

Take “V5-tagged ferredoxin reductase (FDXR-V5) (from UniProt P22570) (enzyme)”: the binding entry is on record as “binds”.
